Source: PubChem BioAssay AID504533 (Broad Institute, 2011)
Inconclusive results, whose numbers are uncertain, are shown with a selection of clear calls.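 Rule for the calls: active = compound whose fitted half-maximal viability-loss concentration is within ten times its top tested dose in every test run; inconclusive = test runs disagree, or a weak flat or poorly fitted curve; inactive = every test run inactive.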

assay: cytotoxicity in HMLE_sh_eGFP control cells, dose response, counter-screen for breast cancer stem cell project, cell-based, luminescence, powder samples, set 5 (AID 504533); details: CellTiter-Glo luminescence, 72 h; at 19.5 µM (top of the series) unless noted
In short: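 test system = HMLE breast epithelial cells expressing shRNA against eGFP | buffer or medium = serum-free CSC medium | doses = 100 nL compound pinned into each well | schedule = about 72 h compound exposure at 37 °C | detection = CellTiter-Glo luminescence, reagent diluted 1:3 in PBS | read-out basis = cell viability from luminescent ATP signal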

Compound | activity change, negative = viability loss
CC(C)c1ccc(CCC(=O)NC2=NCCS2)cc1 | inconclusive: 2%
O=C(COc1c(Cl)cc(Cl)cc1Cl)N/N=C/c1ccc[nH]1 | inconclusive: -28.6%
CC(C)c1ccc(/C=C/C(=O)Nc2cncs2)cc1 | inconclusive: -61.2%
